From paper PMC9283077 come the findings set out here.

By UniProt entry, the sequences of proteins in these tests, tags left out. Residues count along the entry.
UniProt P00367, residues 54-558: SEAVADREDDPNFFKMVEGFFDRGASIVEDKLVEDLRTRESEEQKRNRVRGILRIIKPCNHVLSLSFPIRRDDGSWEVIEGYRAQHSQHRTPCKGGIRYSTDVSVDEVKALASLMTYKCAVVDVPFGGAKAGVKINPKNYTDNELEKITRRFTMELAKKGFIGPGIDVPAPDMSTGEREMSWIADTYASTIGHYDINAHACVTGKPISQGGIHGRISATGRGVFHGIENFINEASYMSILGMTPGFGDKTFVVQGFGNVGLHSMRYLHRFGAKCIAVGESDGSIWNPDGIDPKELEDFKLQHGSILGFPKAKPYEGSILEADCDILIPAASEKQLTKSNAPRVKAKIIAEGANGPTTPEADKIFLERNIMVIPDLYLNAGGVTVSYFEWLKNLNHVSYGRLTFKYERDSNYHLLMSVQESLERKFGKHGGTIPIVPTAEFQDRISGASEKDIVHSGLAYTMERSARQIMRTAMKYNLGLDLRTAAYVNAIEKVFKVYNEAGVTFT

The target of assay [1] is T1, Sirtuin 4 (SIRT4), Flag-tagged, overexpressed by lentivirus (UniProt Q9Y6E7).
T1 sequence: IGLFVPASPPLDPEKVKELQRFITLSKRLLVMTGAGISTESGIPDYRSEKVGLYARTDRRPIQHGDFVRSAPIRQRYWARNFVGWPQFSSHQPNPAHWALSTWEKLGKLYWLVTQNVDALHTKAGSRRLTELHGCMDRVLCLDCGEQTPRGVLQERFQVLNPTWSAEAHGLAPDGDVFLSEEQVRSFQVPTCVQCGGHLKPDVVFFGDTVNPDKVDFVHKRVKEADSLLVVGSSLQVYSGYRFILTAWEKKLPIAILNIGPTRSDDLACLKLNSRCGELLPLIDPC
The assay can be described thus: co-IP; lysate of SIRT4-overexpressing PC-3 and 22rv1 cells in IP lysis buffer; immunoprecipitated with anti-Flag antibody (4-8 ug) at 4°C, protein A/G magnetic beads; GLUD1 detected by western blotting; IgG control.

In assay [2] the target is glutamate dehydrogenase 1 (GLUD1) (human (endogenous in PC-3 and 22rv1)) (UniProt P00367). As to the kind of experiment: co-IP; lysate of PC-3 and 22rv1 cells in IP lysis buffer; immunoprecipitated with GLUD1 antibody (rabbit, 4-8 ug) at 4°C, protein A/G magnetic beads; SIRT4 detected by western blotting; IgG control.

No constants are given. Whether binding was seen depends on the method and setting. In cells and extracts the contact can be indirect. Some binding calls cover weakened binding; strength is not graded here. Tags and fused reporters may be left off the sequences shown.

As for “glutamate dehydrogenase 1 (GLUD1) (from UniProt P00367 54-558) (enzyme)”, the binding entry in assay [1] is “binds”.

B1: Sirtuin 4 (SIRT4), Flag-tagged, overexpressed by lentivirus (enzyme, UniProt Q9Y6E7 29-314)
chain: IGLFVPASPPLDPEKVKELQRFITLSKRLLVMTGAGISTESGIPDYRSEKVGLYARTDRRPIQHGDFVRSAPIRQRYWARNFVGWPQFSSHQPNPAHWALSTWEKLGKLYWLVTQNVDALHTKAGSRRLTELHGCMDRVLCLDCGEQTPRGVLQERFQVLNPTWSAEAHGLAPDGDVFLSEEQVRSFQVPTCVQCGGHLKPDVVFFGDTVNPDKVDFVHKRVKEADSLLVVGSSLQVYSGYRFILTAWEKKLPIAILNIGPTRSDDLACLKLNSRCGELLPLIDPC
On to B1, for which the binding result in assay [2] was “binds”.
